The list shows a part of the results.
Legend:
Experiment in all cases: log2 fold change, soluble protein after heating vs DMSO (PISA); higher = thermal stabilisation; K562 cells, 10 uM, 30 min; active = over 0.2 and 3.5 SD of the protein, either way, in both replicates (recomputed)
[1] = compound: CC1=C(C=C(C=C1)NC(=O)C2=CC(=CC=C2)C(C)(C)C#N)NC3=CC4=C(C=C3)N=CN(C4=O)C
Procedure, shortened: (§1)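 Thermal stability values are relative to control samples and come from duplicates. They are expressed as log2 fold changes. For measurement, K562 cells (2×10^6 cells/mL) received 10 μM compound for 30 min, and aliquots were heated for 3 min over 48°C-58°C, pooled, and extracted at 4°C in PBS with 0.5% NP-40. Soluble protein, the supernatant after 21,000xg for 90 min, was quantified by TMTpro 16plex LC-MS/MS with equalised channel sums.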

Sequences of proteins named here, by UniProt entry; tags and fusion partners are left off. A change or cut given only in a name is not applied to a line headed by its entry.
UniProt P23142: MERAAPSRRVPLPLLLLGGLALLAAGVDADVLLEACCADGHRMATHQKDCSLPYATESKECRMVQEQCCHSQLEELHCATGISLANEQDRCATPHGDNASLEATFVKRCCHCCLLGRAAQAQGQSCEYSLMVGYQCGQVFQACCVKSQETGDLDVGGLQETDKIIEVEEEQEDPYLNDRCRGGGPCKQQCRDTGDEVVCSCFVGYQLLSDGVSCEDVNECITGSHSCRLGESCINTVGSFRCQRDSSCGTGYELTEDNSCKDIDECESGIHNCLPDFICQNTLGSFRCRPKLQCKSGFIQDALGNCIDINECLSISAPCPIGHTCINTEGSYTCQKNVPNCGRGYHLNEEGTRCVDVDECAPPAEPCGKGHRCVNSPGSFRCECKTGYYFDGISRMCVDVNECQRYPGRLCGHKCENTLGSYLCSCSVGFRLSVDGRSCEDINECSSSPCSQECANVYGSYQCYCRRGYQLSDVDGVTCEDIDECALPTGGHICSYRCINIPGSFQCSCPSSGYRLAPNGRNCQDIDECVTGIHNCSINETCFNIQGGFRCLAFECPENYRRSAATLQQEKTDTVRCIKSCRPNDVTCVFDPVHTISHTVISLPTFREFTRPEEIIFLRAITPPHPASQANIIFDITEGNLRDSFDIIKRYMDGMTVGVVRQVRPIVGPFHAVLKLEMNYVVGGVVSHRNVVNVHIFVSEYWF
UniProt O75369, whole entry, looked up: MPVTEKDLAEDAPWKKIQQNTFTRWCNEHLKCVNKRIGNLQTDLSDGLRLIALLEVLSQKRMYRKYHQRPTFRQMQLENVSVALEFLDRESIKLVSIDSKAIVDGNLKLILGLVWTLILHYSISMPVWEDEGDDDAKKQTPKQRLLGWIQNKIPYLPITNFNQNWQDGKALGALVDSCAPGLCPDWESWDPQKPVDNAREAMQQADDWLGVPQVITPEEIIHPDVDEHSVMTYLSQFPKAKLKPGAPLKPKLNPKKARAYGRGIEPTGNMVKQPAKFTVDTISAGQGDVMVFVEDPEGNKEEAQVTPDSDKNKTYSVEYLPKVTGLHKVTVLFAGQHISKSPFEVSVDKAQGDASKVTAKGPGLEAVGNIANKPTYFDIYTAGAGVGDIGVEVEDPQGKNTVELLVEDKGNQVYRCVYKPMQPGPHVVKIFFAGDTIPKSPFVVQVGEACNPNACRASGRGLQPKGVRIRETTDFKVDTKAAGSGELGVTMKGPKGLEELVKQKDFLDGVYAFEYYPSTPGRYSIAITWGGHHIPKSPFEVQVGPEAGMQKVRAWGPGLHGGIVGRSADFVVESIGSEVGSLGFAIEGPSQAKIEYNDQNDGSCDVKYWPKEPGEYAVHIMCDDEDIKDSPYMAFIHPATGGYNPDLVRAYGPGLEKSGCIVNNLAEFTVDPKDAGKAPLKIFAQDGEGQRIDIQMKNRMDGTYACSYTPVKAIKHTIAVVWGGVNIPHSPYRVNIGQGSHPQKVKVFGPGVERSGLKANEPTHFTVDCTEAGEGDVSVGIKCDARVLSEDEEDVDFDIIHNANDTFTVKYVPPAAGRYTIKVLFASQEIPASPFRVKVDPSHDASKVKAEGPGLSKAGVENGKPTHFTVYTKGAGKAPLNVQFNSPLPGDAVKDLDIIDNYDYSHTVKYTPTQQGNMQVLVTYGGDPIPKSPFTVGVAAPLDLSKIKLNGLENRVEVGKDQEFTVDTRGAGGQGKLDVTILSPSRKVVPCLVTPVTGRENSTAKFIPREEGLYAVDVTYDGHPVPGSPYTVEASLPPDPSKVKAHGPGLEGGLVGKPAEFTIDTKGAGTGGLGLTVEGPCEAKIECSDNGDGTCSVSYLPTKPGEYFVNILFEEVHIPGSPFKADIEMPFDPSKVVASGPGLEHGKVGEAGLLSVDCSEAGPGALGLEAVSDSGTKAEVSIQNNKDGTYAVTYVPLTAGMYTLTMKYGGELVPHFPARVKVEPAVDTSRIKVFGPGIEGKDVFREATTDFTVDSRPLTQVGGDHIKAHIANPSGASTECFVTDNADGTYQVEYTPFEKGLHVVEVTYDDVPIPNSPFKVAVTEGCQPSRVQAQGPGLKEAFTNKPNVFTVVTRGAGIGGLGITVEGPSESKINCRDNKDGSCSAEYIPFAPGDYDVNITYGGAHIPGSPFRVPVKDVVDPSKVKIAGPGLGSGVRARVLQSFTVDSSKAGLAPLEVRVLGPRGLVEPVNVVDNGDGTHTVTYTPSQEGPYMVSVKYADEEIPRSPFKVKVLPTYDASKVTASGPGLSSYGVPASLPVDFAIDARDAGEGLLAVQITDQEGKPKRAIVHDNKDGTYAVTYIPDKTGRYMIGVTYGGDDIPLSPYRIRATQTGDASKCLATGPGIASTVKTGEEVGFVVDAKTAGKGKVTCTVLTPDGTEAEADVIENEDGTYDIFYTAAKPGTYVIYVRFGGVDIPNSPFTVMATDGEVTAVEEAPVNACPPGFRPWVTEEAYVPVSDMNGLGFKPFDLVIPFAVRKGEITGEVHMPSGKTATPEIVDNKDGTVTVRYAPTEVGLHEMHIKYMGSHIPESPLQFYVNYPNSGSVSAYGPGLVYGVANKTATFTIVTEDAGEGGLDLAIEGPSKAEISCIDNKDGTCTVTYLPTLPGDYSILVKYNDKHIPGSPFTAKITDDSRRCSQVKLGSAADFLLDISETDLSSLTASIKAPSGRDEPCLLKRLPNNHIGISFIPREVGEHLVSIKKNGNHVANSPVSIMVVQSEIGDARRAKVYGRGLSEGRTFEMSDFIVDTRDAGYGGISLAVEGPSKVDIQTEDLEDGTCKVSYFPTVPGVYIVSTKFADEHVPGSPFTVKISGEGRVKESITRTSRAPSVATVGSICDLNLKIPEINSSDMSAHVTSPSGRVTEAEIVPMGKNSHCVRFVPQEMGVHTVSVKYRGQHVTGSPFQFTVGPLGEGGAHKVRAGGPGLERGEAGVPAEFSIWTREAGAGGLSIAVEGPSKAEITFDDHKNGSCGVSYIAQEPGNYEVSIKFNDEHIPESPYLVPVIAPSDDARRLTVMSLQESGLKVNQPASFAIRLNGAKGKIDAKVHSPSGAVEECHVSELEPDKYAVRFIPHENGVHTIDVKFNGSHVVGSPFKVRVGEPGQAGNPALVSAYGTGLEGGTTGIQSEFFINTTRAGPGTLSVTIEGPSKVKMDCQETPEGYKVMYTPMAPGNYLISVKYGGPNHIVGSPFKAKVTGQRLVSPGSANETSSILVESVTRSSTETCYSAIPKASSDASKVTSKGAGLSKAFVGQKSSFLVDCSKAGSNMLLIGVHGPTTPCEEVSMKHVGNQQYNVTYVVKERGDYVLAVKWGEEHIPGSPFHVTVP
UniProt Q13643: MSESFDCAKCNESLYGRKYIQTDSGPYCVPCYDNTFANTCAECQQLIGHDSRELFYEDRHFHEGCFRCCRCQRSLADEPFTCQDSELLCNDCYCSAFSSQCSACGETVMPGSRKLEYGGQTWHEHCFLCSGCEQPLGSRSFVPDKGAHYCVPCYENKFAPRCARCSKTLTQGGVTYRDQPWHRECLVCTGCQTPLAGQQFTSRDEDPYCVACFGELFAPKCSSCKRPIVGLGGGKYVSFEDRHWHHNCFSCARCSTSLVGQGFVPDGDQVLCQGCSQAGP
UniProt P09038, whole entry, looked up: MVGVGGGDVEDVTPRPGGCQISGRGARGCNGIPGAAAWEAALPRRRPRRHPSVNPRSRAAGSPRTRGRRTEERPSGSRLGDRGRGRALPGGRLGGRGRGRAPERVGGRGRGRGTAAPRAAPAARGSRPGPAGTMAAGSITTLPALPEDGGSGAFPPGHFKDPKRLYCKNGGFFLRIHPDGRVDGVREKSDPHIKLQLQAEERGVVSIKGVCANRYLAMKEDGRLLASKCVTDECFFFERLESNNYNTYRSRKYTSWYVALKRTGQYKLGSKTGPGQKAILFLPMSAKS
UniProt Q96IG2: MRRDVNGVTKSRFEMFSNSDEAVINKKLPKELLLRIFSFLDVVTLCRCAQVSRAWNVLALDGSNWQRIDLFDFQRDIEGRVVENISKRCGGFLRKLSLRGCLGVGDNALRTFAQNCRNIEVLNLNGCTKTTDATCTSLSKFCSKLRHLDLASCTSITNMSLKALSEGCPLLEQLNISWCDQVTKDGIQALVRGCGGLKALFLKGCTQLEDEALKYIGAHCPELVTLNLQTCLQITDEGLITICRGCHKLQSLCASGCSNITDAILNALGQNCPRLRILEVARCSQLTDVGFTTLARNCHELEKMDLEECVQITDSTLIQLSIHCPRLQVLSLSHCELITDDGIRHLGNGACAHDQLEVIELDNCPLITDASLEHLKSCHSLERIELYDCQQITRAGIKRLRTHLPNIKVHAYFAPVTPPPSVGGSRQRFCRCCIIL
UniProt Q6P3S6: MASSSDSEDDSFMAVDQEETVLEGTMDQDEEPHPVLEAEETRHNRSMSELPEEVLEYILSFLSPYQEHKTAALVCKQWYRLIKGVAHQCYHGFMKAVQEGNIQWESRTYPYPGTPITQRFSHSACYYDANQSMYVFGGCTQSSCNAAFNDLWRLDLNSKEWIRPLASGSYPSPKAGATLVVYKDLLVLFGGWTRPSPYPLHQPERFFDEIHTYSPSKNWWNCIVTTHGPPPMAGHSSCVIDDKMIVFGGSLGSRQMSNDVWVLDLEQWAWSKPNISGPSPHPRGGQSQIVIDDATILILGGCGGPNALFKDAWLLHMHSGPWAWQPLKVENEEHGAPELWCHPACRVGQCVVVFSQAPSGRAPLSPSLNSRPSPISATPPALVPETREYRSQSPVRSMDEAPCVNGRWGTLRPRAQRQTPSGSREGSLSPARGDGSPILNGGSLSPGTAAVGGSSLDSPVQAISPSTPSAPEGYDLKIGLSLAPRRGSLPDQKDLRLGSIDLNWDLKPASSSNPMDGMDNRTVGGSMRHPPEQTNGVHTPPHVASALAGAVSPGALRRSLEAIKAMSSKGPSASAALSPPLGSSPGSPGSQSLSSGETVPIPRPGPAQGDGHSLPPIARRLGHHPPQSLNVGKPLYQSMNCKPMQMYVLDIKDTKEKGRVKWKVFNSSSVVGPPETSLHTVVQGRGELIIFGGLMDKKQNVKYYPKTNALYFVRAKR
UniProt Q9NRD1: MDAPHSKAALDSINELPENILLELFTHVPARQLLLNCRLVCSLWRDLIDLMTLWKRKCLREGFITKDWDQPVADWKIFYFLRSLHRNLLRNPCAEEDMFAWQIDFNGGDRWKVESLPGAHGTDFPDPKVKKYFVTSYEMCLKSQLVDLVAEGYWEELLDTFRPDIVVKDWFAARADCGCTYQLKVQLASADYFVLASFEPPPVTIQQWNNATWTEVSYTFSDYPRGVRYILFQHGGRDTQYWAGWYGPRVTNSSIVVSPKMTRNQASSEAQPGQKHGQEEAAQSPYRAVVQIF
UniProt Q9HA64: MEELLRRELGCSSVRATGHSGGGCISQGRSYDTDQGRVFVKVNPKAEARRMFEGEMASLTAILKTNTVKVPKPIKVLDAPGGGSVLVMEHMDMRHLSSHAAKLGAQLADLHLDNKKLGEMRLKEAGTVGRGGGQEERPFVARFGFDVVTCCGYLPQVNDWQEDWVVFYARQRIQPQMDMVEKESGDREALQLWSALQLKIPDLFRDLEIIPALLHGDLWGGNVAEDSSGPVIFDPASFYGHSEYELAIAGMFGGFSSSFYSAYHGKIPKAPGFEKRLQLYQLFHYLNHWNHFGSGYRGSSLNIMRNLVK
UniProt Q9Y285: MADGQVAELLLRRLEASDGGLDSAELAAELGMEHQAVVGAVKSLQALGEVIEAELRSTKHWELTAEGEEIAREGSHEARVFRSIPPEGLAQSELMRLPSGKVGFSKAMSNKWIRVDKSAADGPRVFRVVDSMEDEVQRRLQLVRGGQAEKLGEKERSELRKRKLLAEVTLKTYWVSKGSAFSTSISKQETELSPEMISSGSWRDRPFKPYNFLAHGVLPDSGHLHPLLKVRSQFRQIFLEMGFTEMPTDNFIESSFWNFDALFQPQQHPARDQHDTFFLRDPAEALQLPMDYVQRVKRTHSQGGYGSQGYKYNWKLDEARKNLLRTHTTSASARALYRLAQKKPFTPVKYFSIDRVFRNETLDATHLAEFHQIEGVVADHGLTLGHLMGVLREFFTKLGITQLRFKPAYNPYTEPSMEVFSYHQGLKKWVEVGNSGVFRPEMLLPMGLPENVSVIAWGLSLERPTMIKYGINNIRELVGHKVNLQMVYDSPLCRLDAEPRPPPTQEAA
UniProt Q8N8J7: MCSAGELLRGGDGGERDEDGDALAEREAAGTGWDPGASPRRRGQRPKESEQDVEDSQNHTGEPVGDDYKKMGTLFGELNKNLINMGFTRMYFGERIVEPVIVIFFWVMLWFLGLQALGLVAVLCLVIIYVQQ
UniProt Q96GI7: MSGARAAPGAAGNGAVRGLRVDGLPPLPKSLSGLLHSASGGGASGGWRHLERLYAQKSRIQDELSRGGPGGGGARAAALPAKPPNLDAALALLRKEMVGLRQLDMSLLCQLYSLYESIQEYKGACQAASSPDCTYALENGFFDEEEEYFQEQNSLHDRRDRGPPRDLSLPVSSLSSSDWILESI

[2] = compound: CC1=C(C=C(C=C1)NC(=O)C2=CC(=CC=C2)N(C)C)NC(=O)C3=CC=C(C=C3)O
Procedure, shortened: as §1

[3] = compound: CC1=CC=C(C=C1)SC2=C3C=C(SC3=CN=C2)C(=O)N
Procedure, shortened: as §1

[4] = compound: CC1=NC(=CC=C1)C2=C(N=C(N2)C(C)(C)C)C3=CC4=NC=CN=C4C=C3
Procedure, shortened: as §1

Nexturastat A = compound: CCCCN(Cc1ccc(C(=O)NO)cc1)C(=O)Nc1ccccc1 [Nexturastat A]
Procedure, shortened: as §1

vemurafenib = compound: CCCS(=O)(=O)Nc1ccc(F)c(C(=O)c2c[nH]c3ncc(-c4ccc(Cl)cc4)cc23)c1F [vemurafenib]
Procedure, shortened: as §1

[5] = compound: CCCS(=O)(=O)Nc1ccc(F)c(C(=O)c2c[nH]c3ncc(Cl)cc23)c1F
Procedure, shortened: as §1

[6] = compound: CCCc1cc(C)[nH]c(=O)c1CNC(=O)c1cc(-c2ccnc(N3CCN(C)CC3)c2)cc2c1cnn2C(C)C
Procedure, shortened: as §1

givinostat = compound: CCN(CC)Cc1ccc2cc(COC(=O)Nc3ccc(C(=O)NO)cc3)ccc2c1 [givinostat]
Procedure, shortened: as §1

barasertib = compound: CCN(CCCOc1ccc2c(Nc3cc(CC(=O)Nc4cccc(F)c4)[nH]n3)ncnc2c1)CCOP(=O)(O)O [barasertib]
Procedure, shortened: as §1

Measured: log2 fold change

FBLN1 (UniProt P23142)
inactive: [1] -0.092 | [2] 0.314 | [3] 0.111 | [4] 0.188 | Nexturastat A 0.183 | vemurafenib 0.093 | [5] -0.167 | [6] -0.232 | givinostat -0.014 | barasertib -0.143

FLNB isoform 8 (UniProt O75369)
inactive: [1] 0.012 | [2] -0.018 | [3] -0.002 | [4] 0.003 | Nexturastat A -0.012 | vemurafenib 0.028 | [5] 0.03 | [6] -0.014 | givinostat 0.014 | barasertib 0.014

FHL3 (UniProt Q13643)
inactive: [1] -0.025 | [2] -0.002 | [3] -0.011 | [4] 0.017 | Nexturastat A -0.037 | vemurafenib -0.048 | [5] -0.008 | [6] -0.056 | givinostat 0.01 | barasertib -0.009

FGF2 (UniProt P09038)
inactive: [1] -0.06 | [2] 0.163 | [3] 0.106 | [4] -0.032 | Nexturastat A 0.101 | vemurafenib -0.033 | [5] -0.059 | [6] -0.039 | givinostat 0.023 | barasertib -0.039

FBXL20 (UniProt Q96IG2)
inactive: [1] -0.02 | [2] -0.042 | [3] -0.007 | [4] -0.047 | Nexturastat A 0.176 | vemurafenib -0.04 | [5] -0.032 | [6] 0.032 | givinostat -0.049 | barasertib 0.041

FBXO42 (UniProt Q6P3S6)
inactive: [1] -0.033 | [2] 0.164 | [3] -0.038 | [4] 0.04 | Nexturastat A -0.072 | vemurafenib -0.086 | [5] 0.083 | [6] -0.025 | givinostat 0.09 | barasertib 0.015

FBXW2 (UniProt Q9UKT8)
inactive: [1] 0.131 | [2] 0.054 | [3] 0.133 | [4] -0.048 | Nexturastat A -0.143 | vemurafenib 0.158 | [5] -0.12 | [6] 0.152 | givinostat -0.032 | barasertib 0.026

Copied from the results shown (2 entries):
FGF2 (UniProt P09038)
inactive: [1] -0.06 | [2] 0.163 | [3] 0.106 | [4] -0.032 | Nexturastat A 0.101 | vemurafenib -0.033 | [5] -0.059 | [6] -0.039 | givinostat 0.023 | barasertib -0.039

FBXL20 (UniProt Q96IG2)
inactive: [1] -0.02 | [2] -0.042 | [3] -0.007 | [4] -0.047 | Nexturastat A 0.176 | vemurafenib -0.04 | [5] -0.032 | [6] 0.032 | givinostat -0.049 | barasertib 0.041

Next part.

FLOT1 (UniProt O75955)
inactive: [1] 0.024 | [2] -0.067 | [3] 0.007 | [4] -0.125 | Nexturastat A 0.297 | vemurafenib -0.089 | [5] -0.021 | [6] 0.077 | givinostat 0.097 | barasertib 0.022

FLII (UniProt Q13045)
inactive: [1] 0.017 | [2] -0.016 | [3] -0.008 | [4] 0.009 | Nexturastat A 0.013 | vemurafenib 0.027 | [5] 0.003 | [6] 0.011 | givinostat 0.016 | barasertib 0.026

FBXO6 (UniProt Q9NRD1)
inactive: [1] 0.006 | [2] 0.006 | [3] 0.048 | [4] 0.026 | Nexturastat A -0.04 | vemurafenib 0.044 | [5] 0.014 | [6] -0.01 | givinostat -0.093 | barasertib -0.008

FN3KRP (UniProt Q9HA64)
inactive: [1] -0.016 | [2] 0.013 | [3] -0.006 | [4] -0.013 | Nexturastat A -0.015 | vemurafenib 0.021 | [5] -0.005 | [6] 0.089 | givinostat -0.026 | barasertib 0.018

FBXO30 (UniProt Q8TB52)
inactive: [1] 0.007 | [2] -0.055 | [3] -0.029 | [4] 0.055 | Nexturastat A -0.146 | vemurafenib 0.001 | [5] 0.075 | [6] -0.044 | givinostat -0.005 | barasertib 0.026

FBXO4 (UniProt Q9UKT5)
inactive: [1] -0.093 | [2] 0.003 | [3] 0.054 | [4] 0.024 | Nexturastat A -0.048 | vemurafenib 0.035 | [5] 0.122 | [6] -0.047 | givinostat -0.013 | barasertib 0.002

FANCB (UniProt Q8NB91)
inactive: [1] 0.024 | [2] 0.027 | [3] 0.022 | [4] 0.015 | Nexturastat A -0.065 | vemurafenib -0.028 | [5] 0.029 | [6] 0.001 | givinostat -0.003 | barasertib 0.102

FH (UniProt P07954)
inactive: [1] 0.025 | [2] -0.015 | [3] -0.035 | [4] 0.016 | Nexturastat A -0.105 | vemurafenib 0.036 | [5] 0.013 | [6] -0.01 | givinostat -0.032 | barasertib -0.01

FARSA (UniProt Q9Y285)
inactive: [1] 0.012 | [2] -0.028 | [3] -0.017 | [4] -0.011 | Nexturastat A 0.029 | vemurafenib 0.037 | [5] 0.098 | [6] -0.003 | givinostat 0.046 | barasertib 0.021

FAM78A (UniProt Q5JUQ0)
inactive: [1] 0.008 | [2] -0.053 | [3] 0.002 | [4] -0.093 | Nexturastat A 0.043 | vemurafenib -0.069 | [5] -0.063 | givinostat 0.065 | barasertib 0.042

FAM241A (UniProt Q8N8J7)
active: [1] 0.536
inactive: [2] -0.012 | [3] -0.031 | [4] -0.028 | vemurafenib -0.083 | [5] 0.015 | [6] -0.009 | givinostat -0.037 | barasertib 0.06

FASN (UniProt P49327)
inactive: [1] 0.022 | [2] -0.021 | [3] 0.021 | [4] 0.045 | Nexturastat A -0.091 | vemurafenib 0.016 | [5] 0.064 | [6] -0.004 | givinostat 0.002 | barasertib 0.007

FAR1 (UniProt Q8WVX9)
inactive: [1] -0.015 | [2] -0.028 | [3] 0.023 | [4] 0.05 | Nexturastat A -0.016 | vemurafenib 0.002 | [5] 0.024 | [6] -0.011 | givinostat 0.041 | barasertib 0.043

FAM89A (UniProt Q96GI7)
inactive: [1] 0.074 | [2] -0.007 | [4] 0.041 | [6] 0.059 | givinostat 0.039 | barasertib 0.097

FASTKD1 (UniProt Q53R41)
inactive: [1] -0.066 | [2] -0.138 | [4] 0.017 | Nexturastat A 0.013 | vemurafenib 0.065 | givinostat 0.156 | barasertib 0.096

FAM98A (UniProt Q8NCA5)
inactive: [1] 0.03 | [2] -0.014 | [3] -0.036 | [4] -0.047 | Nexturastat A 0.23 | vemurafenib -0.014 | [5] -0.057 | [6] 0.133 | givinostat 0.036 | barasertib -0.027

FKRP (UniProt Q9H9S5)
inactive: [1] 0.013 | [2] 0.047 | [3] -0.033 | Nexturastat A -0.06 | vemurafenib 0.048 | [5] 0.054 | [6] -0.056 | givinostat -0.037 | barasertib 0.007

FASTKD5 (UniProt Q7L8L6)
inactive: [1] 0.282 | [2] -0.125 | [3] -0.115 | Nexturastat A -0.118 | vemurafenib 0.17 | [5] -0.221 | givinostat 0.162 | barasertib 0.098
